Reference: article doi:10.1101/588574
These are yes or no findings as the source states them, for the method shown. In cells and extracts the contact can be indirect. Some results given as binding are weak or reduced against the parent protein; the word gives no strength.

B1: PHD-finger protein 6 (protein, UniProt Q8IWS0 1-365)
chain: MSSSVEQKKGPTRQRKCGFCKSNRDKECGQLLISENQKVAAHHKCMLFSSALVSSHSDNESLGGFSIEDVQKEIKRGTKLMCSLCHCPGATIGCDVKTCHRTYHYHCALHDKAQIREKPSQGIYMVYCRKHKKTAHNSEADLEESFNEHELEPSSPKSKKKSRKGRPRKTNFKGLSEDTRSTSSHGTDEMESSSYRDRSPHRSSPSDTRPKCGFCHVGEEENEARGKLHIFNAKKAAAHYKCMLFSSGTVQLTTTSRAEFGDFDIKTVLQEIKRGKRMKCTLCSQPGATIGCEIKACVKTYHYHCGVQDKAKYIENMSRGIYKLYCKNHSGNDERDEEDEERESKSRGKVEIDQQQLTQQQLNGN
B2: RNF138 (protein, UniProt Q8WVD3 1-245)
chain: MAEDLSAATSYTEDDFYCPVCQEVLKTPVRTTACQHVFCRKCFLTAMRESGAHCPLCRGNVTRRERACPERALDLENIMRKFSGSCRCCAKQIKFYRMRHHYKSCKKYQDEYGVSSIIPNFQISQDSVGNSNRSETSTSDNTETYQENTSSSGHPTFKCPLCQESNFTRQRLLDHCNSNHLFQIVPVTCPICVSLPWGDPSQITRNFVSHLNQRHQFDYGEFVNLQLDEETQYQTAVEESFQVNI
B3: MRE11, P49959 1-708 (protein)
chain: MSTADALDDENTFKILVATDIHLGFMEKDAVRGNDTFVTLDEILRLAQENEVDFILLGGDLFHENKPSRKTLHTCLELLRKYCMGDRPVQFEILSDQSVNFGFSKFPWVNYQDGNLNISIPVFSIHGNHDDPTGADALCALDILSCAGFVNHFGRSMSVEKIDISPVLLQKGSTKIALYGLGSIPDERLYRMFVNKKVTMLRPKEDENSWFNLFVIHQNRSKHGSTNFIPEQFLDDFIDLVIWGHEHECKIAPTKNEQQLFYISQPGSSVVTSLSPGEAVKKHVGLLRIKGRKMNMHKIPLHTVRQFFMEDIVLANHPDIFNPDNPKVTQAIQSFCLEKIEEMLENAERERLGNSHQPEKPLVRLRVDYSGGFEPFSVLRFSQKFVDRVANPKDIIHFFRHREQKEKTGEEINFGKLITKPSEGTTLRVEDLVKQYFQTAEKNVQLSLLTERGMGEAVQEFVDKEEKDAIEELVKYQLEKTQRFLKERHIDALEDKIDEEVRRFRETRQKNTNEEDDEVREAMTRARALRSQSEESASAFSADDLMSIDLAEQMANDSDDSISAATNKGRGRGRGRRGGRGQNSASRGGSQRGRADTGLETSTRSRNSKTAVSASRNMSIIDAFKSTRQQPSRNVTTKNYSEVIEVDESDVEEDIFPTTSKTDQRWSSTSSSKIMSQSQVSKGVDFESSEDDDDDPFMNTSSLRRNRR

Legend:
GFP-EXO1 (human) = GFP-EXO1 (human) (UniProt Q9UQ84); assay: co-IP
[1] = target: T1, EXO1-2x-Strep (human), Q9UQ84; assay: pull-down; conditions: remark: other sources report otherwise
T1 chain: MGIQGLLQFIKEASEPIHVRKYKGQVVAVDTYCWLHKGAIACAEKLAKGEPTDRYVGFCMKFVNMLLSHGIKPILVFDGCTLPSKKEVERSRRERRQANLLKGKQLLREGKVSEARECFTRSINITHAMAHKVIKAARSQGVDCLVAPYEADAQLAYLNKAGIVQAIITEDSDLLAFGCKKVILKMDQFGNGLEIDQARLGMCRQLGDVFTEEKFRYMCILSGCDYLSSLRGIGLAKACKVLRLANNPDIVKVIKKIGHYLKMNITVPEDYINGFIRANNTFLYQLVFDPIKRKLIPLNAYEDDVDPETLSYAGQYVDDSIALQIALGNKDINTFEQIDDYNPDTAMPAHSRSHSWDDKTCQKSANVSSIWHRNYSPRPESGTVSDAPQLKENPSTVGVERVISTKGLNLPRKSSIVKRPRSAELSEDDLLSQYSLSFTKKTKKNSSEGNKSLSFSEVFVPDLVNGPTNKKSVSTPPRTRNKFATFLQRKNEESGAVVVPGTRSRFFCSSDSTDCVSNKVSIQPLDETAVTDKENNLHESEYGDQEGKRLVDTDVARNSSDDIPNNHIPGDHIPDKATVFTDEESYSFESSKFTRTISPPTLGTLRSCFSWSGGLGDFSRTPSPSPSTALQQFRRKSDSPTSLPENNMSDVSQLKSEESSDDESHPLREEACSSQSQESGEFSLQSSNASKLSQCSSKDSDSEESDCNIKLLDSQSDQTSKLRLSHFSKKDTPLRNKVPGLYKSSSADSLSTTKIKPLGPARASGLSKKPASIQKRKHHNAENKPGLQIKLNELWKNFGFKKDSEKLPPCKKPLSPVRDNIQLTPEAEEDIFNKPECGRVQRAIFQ

| Binder | binding (GFP-EXO1 (human)) | binding [1] |
| --- | --- | --- |
| B1 | binds |  |
| B2 | binds |  |
| B3 |  | no binding |
